Data source: PubChem BioAssay AID1259289 (Sanger Institute, 2017)
Screen: 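Kinases that bowel cancer cells need to survive, with or without BYL719, cetuximab, trametinib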 (primary screen). Cells: human LS513 colorectal cancer cells. Knock-down reagent: siRNA pool against human genes. Treatment: anchor drug BYL719 at 1 µM, cetuximab at 5 µg/ml or trametinib at 10 nM, or DMSO vehicle alone; exposure time not given. Read-out: 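Survival versus non-targeting pool for each arm averaged over replicates, robust z-score in the arm with DMSO only, and synergy scores for BYL719, cetuximab or trametinib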. Scale: robust z-score, siRNA alone (DMSO): higher = more viable cells; strongly negative means essential; viability with DMSO vs control: higher = more viable cells; synergy score with BYL719: higher = stronger combined killing with BYL719; synergy score with cetuximab: higher = stronger combined killing with cetuximab; synergy score with trametinib: higher = stronger combined killing with trametinib. Rule for the call: 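a gene counts as active if its DMSO-only robust z-score falls under -3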. Calls: active = essential (knock-down alone); inactive = not essential.
This is one part, drawn at random, of 794 reagents. 16 of them (2%) were called active. 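Active marks cell loss from silencing alone; drug synergy shows only in the synergy scores, not the calls.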 No viability above 1 is reported: the scale is capped. The record does not give: the amount of reagent, the time to read-out.

no.	target	PubChem SID	robust z-score, siRNA alone (DMSO)	viability with DMSO vs control (fraction of control)	synergy score with BYL719	synergy score with cetuximab	synergy score with trametinib	outcome
1	BMPR1B (GeneID 658)	SID56478926	0.561	1	0.184	-0.0339	-0.031	inactive
2	MAP2K7 (GeneID 5609)	SID56478752	0.561	1	-0.0688	0.04	0.0428	inactive
3	BCOR (GeneID 54880)	SID135620845	0.186	0.947	0.0931	0.122	0.0522	inactive
4	PLK2 (GeneID 10769)	SID56478648	-0.106	0.905	0.0246	0.0325	0.00873	inactive
5	GK (GeneID 2710)	SID56479100	0.561	1	-0.0585	0.0333	-0.0211	inactive
6	CDKL4 (GeneID 344387)	SID135624323	0.352	0.97	0.00646	0.142	0.0294	inactive
7	STK32B (GeneID 55351)	SID56478812	0.561	1	0.0773	0.147	0.0336	inactive
8	MATK (GeneID 4145)	SID152153842	0.561	1	-0.123	-0.0393	0.00583	inactive
9	DGUOK (GeneID 1716)	SID152155858	-2.92	0.506	-0.118	-0.00717	-0.0187	inactive
10	CSNK2A2 (GeneID 1459)	SID56478861	0.561	1	-0.134	-0.0968	-0.0136	inactive
11	PIM2 (GeneID 11040)	SID56479034	0.206	0.95	0.132	0.222	0.042	inactive
12	IRAK2 (GeneID 3656)	SID152151590	0.561	1	-0.0867	-0.0968	0.0171	inactive
13	GATA3 (GeneID 2625)	SID134310077	-1.02	0.775	-0.109	-0.0282	-0.123	inactive
14	PRP4K (GeneID 8899)	SID152152780	-0.154	0.898	-0.0274	-0.122	-0.0119	inactive
15	MYH10 (GeneID 4628)	SID134325581	0.454	0.985	0.055	0.082	0.064	inactive
16	POMK (GeneID 84197)	SID56479008	0.561	1	-0.134	-0.0968	0.00545	inactive
17	ROCK2 (GeneID 9475)	SID135620850	0.391	0.976	-0.0225	0.0631	-0.00211	inactive
18	FGFR1 (GeneID 2260)	SID135620619	0.561	1	-0.134	-0.0968	0.0764	inactive
19	PIK3C2G (GeneID 5288)	SID152155956	-2.3	0.593	-0.0853	0.0892	0.0254	inactive
20	ITPKA (GeneID 3706)	SID152154114	0.561	1	-0.0492	-0.0968	0.0491	inactive
21	PXK (GeneID 54899)	SID152149443	-0.904	0.792	-0.088	0.138	0.00658	inactive
22	PTPN11 (GeneID 5781)	SID134310183	0.561	1	-0.134	-0.0968	0.0114	inactive
23	NTN4 (GeneID 59277)	SID152155179	0.461	0.986	-0.118	0.174	0.0477	inactive
24	CDK20 (GeneID 23552)	SID152152456	0.561	1	0.0717	0.0178	0.0648	inactive
25	PLK4 (GeneID 10733)	SID152155543	0.561	1	0.115	0.157	0.0431	inactive
26	PRPS1 (GeneID 5631)	SID56479145	0.561	1	0.126	-0.0386	0.0645	inactive
27	EPHB6 (GeneID 2051)	SID152155826	0.561	1	0.0259	0.116	0.0127	inactive
28	MKNK2 (GeneID 2872)	SID152150791	0.561	1	-0.057	0.000755	0.0387	inactive
29	NUP98 (GeneID 4928)	SID152147776	-2.42	0.577	-0.0996	-0.0352	0.0112	inactive
30	PRKAB1 (GeneID 5564)	SID134312708	-0.29	0.879	0.0859	-0.0746	-0.0193	inactive
31	CALM3 (GeneID 808)	SID152148336	0.561	1	-0.0487	-0.0934	0.0147	inactive
32	DCLK1 (GeneID 9201)	SID56478913	-0.386	0.866	-0.249	-0.0123	0.0212	inactive
33	DYRK1B (GeneID 9149)	SID56478878	0.183	0.946	0.0239	0.168	0.057	inactive

Already shown: entries from further up.
no.	target	PubChem SID	robust z-score, siRNA alone (DMSO)	viability with DMSO vs control (fraction of control)	synergy score with BYL719	synergy score with cetuximab	synergy score with trametinib	outcome
1	BMPR1B (GeneID 658)	SID56478926	0.561	1	0.184	-0.0339	-0.031	inactive
2	MAP2K7 (GeneID 5609)	SID56478752	0.561	1	-0.0688	0.04	0.0428	inactive
3	BCOR (GeneID 54880)	SID135620845	0.186	0.947	0.0931	0.122	0.0522	inactive

The listing continues.
no.	target	PubChem SID	robust z-score, siRNA alone (DMSO)	viability with DMSO vs control (fraction of control)	synergy score with BYL719	synergy score with cetuximab	synergy score with trametinib	outcome
34	ITPKB (GeneID 3707)	SID56479111	0.561	1	-0.134	-0.0885	-0.0103	inactive
35	CDK19 (GeneID 23097)	SID56478856	0.561	1	0.129	0.0452	0.0511	inactive
36	MPP2 (GeneID 4355)	SID152153278	0.142	0.941	0.0827	0.0241	0.0391	inactive
37	PINK1 (GeneID 65018)	SID152149500	0.186	0.947	0.292	0.0935	0.0616	inactive
38	GCK (GeneID 2645)	SID56479241	-1.79	0.666	0.0575	0.102	0.00366	inactive
39	CSNK1E (GeneID 1454)	SID56478659	0.561	1	0.158	-0.0968	-0.0102	inactive
40	STK39 (GeneID 27347)	SID152151246	-1.25	0.742	-0.00417	0.0121	0.027	inactive
41	ACVR2A (GeneID 92)	SID152150723	0.561	1	-0.134	-0.0659	0.00354	inactive
42	AMHR2 (GeneID 269)	SID56478996	0.561	1	-0.134	0.224	0.0673	inactive
43	BUB1 (GeneID 699)	SID152152440	0.561	1	0.0209	-0.0816	0.0244	inactive
44	ZC3H11A (GeneID 9877)	SID135624155	0.561	1	-0.134	0.0361	0.0145	inactive
45	RIPK1 (GeneID 8737)	SID152148235	-0.399	0.864	0.0802	0.0172	0.0228	inactive
46	CHKA (GeneID 1119)	SID135621235	-1.94	0.645	0.0887	0.00326	-0.00051	inactive
47	INSRR (GeneID 3645)	SID56479015	-0.983	0.781	-0.00217	0.0481	-0.0435	inactive
48	BRD3 (GeneID 8019)	SID135620912	0.561	1	-0.134	-0.0968	0.00223	inactive
49	SHPK (GeneID 23729)	SID135621260	0.561	1	-0.0228	-0.0274	0.0604	inactive
50	RBKS (GeneID 64080)	SID56479147	0.561	1	-0.134	-0.0968	0.0169	inactive
